This note sets out measurements from patent publication US10294227B2, “Compounds” (UNIVERSITY COURT OF THE UNIVERSITY OF EDINBURGH, priority 2015, dated 2019).

The data set can be described thus: Liver microsome stability. It is filed as in vitro ADME. As to conditions: % of unmodified drug after 30 min incubation with liver microsomes. (In general: Microsomes from liver hold many membrane-bound enzymes, among them those of drug oxidation.)

In the case of `CCN(CC)CC(=O)Nc1c(C)cccc1C` [Lidocaine, reference compound], the “30 min Liver Microsome stability” value amounted to 92.0%.
